# The supplement of paper PMC6411743
# By UniProt entry, the sequences of proteins in these tests, tags left out. Where a name states a change or a piece, a line headed by the entry shows the natural chain unless it says otherwise.
# UniProt O75177, whole entry: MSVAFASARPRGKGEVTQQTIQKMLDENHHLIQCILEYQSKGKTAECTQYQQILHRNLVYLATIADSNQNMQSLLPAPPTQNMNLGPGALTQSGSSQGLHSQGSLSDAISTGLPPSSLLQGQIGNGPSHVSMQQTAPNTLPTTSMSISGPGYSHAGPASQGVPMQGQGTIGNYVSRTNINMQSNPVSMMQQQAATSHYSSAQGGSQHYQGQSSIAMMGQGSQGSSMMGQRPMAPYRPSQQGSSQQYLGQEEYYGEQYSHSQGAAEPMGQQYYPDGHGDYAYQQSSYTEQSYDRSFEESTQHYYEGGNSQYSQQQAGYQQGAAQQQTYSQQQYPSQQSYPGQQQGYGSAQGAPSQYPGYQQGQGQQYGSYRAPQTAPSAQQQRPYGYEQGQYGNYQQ
# UniProt O60645: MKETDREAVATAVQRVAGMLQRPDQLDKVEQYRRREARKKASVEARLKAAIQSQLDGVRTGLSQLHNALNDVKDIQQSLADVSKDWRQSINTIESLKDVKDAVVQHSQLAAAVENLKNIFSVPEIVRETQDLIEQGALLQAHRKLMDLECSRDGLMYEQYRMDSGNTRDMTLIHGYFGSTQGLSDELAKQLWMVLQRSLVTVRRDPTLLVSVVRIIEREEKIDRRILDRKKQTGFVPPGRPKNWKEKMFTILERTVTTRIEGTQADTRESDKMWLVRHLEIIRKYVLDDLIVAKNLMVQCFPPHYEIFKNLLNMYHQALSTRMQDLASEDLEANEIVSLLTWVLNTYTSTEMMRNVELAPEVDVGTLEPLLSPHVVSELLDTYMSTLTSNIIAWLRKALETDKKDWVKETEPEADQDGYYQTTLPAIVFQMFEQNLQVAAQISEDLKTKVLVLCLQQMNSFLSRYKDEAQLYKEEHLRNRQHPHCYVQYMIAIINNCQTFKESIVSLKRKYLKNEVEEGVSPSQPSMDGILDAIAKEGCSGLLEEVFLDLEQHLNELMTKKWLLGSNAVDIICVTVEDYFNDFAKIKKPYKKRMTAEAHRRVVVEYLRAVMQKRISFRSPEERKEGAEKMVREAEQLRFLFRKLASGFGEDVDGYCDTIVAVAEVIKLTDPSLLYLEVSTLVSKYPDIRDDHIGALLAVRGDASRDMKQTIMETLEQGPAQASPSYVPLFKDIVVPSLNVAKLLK
# UniProt O75164: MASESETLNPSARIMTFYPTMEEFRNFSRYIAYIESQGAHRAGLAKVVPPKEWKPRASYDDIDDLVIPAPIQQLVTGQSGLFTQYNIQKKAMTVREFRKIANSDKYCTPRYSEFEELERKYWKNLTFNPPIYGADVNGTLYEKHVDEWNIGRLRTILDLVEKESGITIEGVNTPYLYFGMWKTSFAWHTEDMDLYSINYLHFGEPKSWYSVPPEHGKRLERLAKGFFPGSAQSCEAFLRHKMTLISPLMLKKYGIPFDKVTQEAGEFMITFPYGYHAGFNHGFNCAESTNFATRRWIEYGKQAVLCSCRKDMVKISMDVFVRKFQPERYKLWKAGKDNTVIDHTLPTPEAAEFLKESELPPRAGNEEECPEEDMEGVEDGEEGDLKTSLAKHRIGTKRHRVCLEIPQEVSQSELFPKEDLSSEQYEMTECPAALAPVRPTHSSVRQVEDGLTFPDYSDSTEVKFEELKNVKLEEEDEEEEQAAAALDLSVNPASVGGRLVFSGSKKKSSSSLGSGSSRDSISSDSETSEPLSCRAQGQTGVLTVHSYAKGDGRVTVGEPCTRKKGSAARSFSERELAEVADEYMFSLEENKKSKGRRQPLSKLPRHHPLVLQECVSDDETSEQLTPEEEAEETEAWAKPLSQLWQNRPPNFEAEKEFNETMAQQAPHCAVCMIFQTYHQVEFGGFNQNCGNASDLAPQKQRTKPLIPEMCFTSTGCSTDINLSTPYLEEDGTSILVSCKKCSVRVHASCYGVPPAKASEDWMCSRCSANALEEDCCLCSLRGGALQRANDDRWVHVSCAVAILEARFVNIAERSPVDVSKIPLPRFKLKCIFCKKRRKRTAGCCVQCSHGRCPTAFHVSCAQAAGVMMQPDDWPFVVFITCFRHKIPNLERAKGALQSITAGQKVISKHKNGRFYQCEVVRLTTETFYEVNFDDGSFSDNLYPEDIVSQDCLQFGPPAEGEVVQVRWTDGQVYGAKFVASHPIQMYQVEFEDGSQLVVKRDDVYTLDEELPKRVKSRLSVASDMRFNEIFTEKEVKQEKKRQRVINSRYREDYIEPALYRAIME
# UniProt O75787, whole entry: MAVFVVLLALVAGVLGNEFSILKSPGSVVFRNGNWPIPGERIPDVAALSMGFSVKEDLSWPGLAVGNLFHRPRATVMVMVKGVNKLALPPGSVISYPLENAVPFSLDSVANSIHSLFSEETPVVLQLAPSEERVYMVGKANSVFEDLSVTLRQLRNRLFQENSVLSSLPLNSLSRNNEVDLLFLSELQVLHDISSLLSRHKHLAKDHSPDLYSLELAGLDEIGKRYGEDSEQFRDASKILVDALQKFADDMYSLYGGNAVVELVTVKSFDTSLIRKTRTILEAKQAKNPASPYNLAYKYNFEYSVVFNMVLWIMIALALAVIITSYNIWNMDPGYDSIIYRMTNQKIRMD
# UniProt O76062: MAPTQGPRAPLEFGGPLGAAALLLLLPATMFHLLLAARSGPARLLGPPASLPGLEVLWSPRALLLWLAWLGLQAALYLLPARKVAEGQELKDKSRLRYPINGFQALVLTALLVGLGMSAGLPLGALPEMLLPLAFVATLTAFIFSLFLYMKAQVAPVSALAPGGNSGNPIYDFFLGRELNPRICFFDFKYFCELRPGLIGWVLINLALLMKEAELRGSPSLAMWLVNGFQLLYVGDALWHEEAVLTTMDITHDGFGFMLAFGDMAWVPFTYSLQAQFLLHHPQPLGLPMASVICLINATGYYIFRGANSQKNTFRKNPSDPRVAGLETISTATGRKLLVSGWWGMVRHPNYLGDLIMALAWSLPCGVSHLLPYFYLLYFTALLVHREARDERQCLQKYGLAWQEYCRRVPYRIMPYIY
# UniProt O95630, whole entry: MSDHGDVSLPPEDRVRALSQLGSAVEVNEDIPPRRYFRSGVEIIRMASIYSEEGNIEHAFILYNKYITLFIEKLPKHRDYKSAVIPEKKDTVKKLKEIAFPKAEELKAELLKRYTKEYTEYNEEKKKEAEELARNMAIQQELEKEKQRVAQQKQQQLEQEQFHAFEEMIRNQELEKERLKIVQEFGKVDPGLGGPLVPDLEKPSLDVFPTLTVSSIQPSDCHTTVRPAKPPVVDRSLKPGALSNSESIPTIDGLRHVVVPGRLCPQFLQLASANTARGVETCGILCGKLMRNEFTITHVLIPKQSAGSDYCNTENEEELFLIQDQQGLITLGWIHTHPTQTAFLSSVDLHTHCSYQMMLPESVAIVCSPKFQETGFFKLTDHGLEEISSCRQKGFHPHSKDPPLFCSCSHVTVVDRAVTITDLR
# UniProt O75223: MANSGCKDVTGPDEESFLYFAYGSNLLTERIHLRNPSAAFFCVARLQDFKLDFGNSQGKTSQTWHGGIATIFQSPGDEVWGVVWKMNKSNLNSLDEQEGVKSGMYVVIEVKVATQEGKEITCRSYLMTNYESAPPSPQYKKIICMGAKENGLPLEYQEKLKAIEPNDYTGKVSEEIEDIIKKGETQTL
# UniProt O95219: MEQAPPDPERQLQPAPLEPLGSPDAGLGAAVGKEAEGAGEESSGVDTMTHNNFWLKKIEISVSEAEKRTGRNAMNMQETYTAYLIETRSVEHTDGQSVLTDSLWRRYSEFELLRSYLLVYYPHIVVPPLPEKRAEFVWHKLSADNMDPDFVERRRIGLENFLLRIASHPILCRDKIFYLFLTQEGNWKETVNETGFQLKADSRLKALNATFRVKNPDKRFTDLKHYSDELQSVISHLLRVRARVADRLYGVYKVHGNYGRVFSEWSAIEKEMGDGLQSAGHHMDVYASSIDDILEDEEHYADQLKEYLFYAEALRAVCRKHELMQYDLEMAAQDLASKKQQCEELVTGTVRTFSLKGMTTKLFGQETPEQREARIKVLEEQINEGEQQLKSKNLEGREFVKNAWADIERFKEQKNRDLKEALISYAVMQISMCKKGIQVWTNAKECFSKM
# UniProt O75494: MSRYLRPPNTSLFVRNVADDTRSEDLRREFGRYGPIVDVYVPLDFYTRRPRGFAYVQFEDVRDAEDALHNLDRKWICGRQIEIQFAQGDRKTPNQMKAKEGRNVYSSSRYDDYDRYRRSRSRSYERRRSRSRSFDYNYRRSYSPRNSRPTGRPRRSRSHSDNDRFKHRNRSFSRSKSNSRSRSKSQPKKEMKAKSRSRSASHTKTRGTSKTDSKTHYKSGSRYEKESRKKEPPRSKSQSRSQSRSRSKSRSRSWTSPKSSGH
# UniProt O75323: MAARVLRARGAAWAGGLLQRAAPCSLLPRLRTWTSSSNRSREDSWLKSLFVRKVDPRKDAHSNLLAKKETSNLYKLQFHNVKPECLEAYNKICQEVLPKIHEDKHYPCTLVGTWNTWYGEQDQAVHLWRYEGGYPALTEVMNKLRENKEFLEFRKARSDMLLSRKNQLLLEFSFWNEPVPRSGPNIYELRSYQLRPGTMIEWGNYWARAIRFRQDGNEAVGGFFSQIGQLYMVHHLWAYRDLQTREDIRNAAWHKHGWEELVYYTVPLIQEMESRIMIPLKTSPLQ
# UniProt O75528: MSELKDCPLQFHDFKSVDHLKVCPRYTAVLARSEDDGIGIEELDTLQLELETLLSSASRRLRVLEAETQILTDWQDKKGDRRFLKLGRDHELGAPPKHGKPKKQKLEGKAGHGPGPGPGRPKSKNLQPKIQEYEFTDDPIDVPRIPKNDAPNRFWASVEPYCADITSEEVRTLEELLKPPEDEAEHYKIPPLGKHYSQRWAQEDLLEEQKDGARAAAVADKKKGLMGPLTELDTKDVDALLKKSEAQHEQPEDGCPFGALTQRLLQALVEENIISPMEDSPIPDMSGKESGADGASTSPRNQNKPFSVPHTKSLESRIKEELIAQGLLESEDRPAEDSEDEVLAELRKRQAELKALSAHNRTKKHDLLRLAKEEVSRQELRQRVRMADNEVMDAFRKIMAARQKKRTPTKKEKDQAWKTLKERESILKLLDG
# UniProt O75460: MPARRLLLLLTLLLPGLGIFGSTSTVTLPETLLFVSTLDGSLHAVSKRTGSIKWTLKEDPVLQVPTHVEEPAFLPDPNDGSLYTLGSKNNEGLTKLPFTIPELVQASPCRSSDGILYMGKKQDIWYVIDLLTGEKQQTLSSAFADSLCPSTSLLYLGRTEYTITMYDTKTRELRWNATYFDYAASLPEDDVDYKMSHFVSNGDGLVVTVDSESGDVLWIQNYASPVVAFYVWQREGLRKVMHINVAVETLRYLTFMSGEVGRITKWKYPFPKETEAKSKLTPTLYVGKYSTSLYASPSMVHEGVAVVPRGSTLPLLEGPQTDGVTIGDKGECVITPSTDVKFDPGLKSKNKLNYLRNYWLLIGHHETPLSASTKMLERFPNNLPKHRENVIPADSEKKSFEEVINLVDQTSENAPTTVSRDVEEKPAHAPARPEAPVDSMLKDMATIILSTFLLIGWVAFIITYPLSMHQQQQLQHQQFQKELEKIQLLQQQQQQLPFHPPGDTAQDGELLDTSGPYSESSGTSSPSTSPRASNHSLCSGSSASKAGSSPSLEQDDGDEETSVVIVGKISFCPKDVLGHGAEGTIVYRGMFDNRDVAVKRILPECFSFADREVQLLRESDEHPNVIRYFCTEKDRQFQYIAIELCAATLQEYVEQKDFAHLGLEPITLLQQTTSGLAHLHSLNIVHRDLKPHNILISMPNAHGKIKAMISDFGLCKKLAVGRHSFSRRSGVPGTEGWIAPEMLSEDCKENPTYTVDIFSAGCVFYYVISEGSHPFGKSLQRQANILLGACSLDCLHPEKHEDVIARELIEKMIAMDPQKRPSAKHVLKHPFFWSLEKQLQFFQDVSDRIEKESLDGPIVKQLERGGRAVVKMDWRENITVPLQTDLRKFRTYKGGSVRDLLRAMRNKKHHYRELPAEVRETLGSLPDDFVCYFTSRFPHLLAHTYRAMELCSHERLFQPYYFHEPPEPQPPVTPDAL
# UniProt O75607: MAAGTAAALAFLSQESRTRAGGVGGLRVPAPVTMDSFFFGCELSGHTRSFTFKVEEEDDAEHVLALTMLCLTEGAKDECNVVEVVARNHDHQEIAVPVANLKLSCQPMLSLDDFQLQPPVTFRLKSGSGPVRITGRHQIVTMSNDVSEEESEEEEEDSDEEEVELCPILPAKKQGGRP
# ± gives the standard deviation of the averaged measurements. This is a selection; strong and weak results do not stand in their true shares.
# Compound: Nc1ncnc2c1ncn2[C@@H]1O[C@H](COP(=O)(O)OP(=O)(O)OP(=O)(O)O)[C@@H](O)[C@H]1O [adenosine triphosphate]
# Assay: NP40-soluble protein abundance relative to vehicle (solubility fold change) (ratio); higher = more soluble protein in presence of ATP
# Method in brief: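 Values are fold changes against the detergent-processed vehicle, based on vsn-normalised intensities. Jurkat crude lysate was treated at eight concentrations from 0.1 to 10 mM (10 min at room temperature, then 3 min at 37 °C), solubilised with 0.8% NP40 and benzonase, ultracentrifuged and analysed by TMT-labelled LC-MS/MS over three independent experiments.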
Target,NP40-soluble protein abundance (concentration: 1mM),NP40-soluble protein abundance (concentration: 2mM),NP40-soluble protein abundance (concentration: 4mM),NP40-soluble protein abundance (concentration: 6mM),NP40-soluble protein abundance (concentration: 8mM),NP40-soluble protein abundance (concentration: 10mM)
TMCC1 (UniProt O94876),1.02 ± 0.13,0.907 ± 0.053,0.893 ± 0.077,0.931 ± 0.013,0.971 ± 0.043,0.927 ± 0.037
PLOD3 (UniProt O60568),1.02 ± 0.061,0.994 ± 0.039,1.04 ± 0.046,1.01 ± 0.058,1.07 ± 0.028,1.08 ± 0.072
ARIH2 (UniProt O95376),0.961 ± 0.052,0.987 ± 0.055,0.997 ± 0.084,0.965 ± 0.068,0.955 ± 0.11,0.992 ± 0.04
SS18L1 (UniProt O75177),1.06 ± 0.11,1.08 ± 0.067,1.08 ± 0.1,1.11 ± 0.18,1.05 ± 0.11,1.08 ± 0.027
UniProt O60645 and related entries,1.04 ± 0.049,1.03 ± 0.059,1.05 ± 0.052,1.01 ± 0.029,1.05 ± 0.04,1.03 ± 0.046
UniProt O94903,0.982 ± 0.052,0.991 ± 0.011,0.967 ± 0.034,1.03 ± 0.05,0.968 ± 0.022,0.975 ± 0.024
UniProt O75164,1.09 ± 0.034,1.06 ± 0.058,1.12 ± 0.04,1.16 ± 0.072,1.08 ± 0.062,1.11 ± 0.025
NBN (UniProt O60934),1.04 ± 0.062,1.02 ± 0.039,1.03 ± 0.039,1.05 ± 0.054,1.03 ± 0.035,1.02 ± 0.015
UTP20 (UniProt O75691),1.03 ± 0.063,1.07 ± 0.059,1.23 ± 0.1,1.14 ± 0.12,1.23 ± 0.084,1.31 ± 0.031
UniProt O75787 and related entries,0.97 ± 0.013,1.01 ± 0.037,1.04 ± 0.08,0.943 ± 0.039,0.989 ± 0.091,0.997 ± 0.092
HEXIM1 (UniProt O94992),0.971 ± 0.021,0.993 ± 0.017,1.01 ± 0.029,1.1 ± 0.021,1.1 ± 0.018,1.12 ± 0.045
RPP14 (UniProt O95059),0.985 ± 0.038,0.965 ± 0.031,0.995 ± 0.11,0.924 ± 0.024,1.09 ± 0.095,1.11 ± 0.094
WFS1 (UniProt O76024),1.14 ± 0.24,0.985 ± 0.12,1.06 ± 0.14,1.03 ± 0.057,1.07 ± 0.15,1.09 ± 0.16
UniProt O76062 and related entries,1 ± 0.15,1.01 ± 0.14,1.03 ± 0.15,0.885 ± 0.14,1.07 ± 0.075,0.984 ± 0.1
STAMBP (UniProt O95630),0.977 ± 0.032,0.976 ± 0.032,0.94 ± 0.03,0.984 ± 0.043,0.948 ± 0.04,0.94 ± 0.018
GGCT (UniProt O75223),0.9068 ± 0.0067,0.939 ± 0.021,0.9002 ± 0.0022,0.92 ± 0.075,0.865 ± 0.017,0.919 ± 0.026
UniProt O94855 and related entries,0.999 ± 0.14,1.01 ± 0.084,0.966 ± 0.068,0.927 ± 0.15,0.949 ± 0.035,0.982 ± 0.078
SNX4 (UniProt O95219),1.02 ± 0.0059,0.967 ± 0.11,1.09 ± 0.076,1.01 ± 0.049,0.94 ± 0.084,1 ± 0.15
UniProt O75494 and related entries,1.26 ± 0.081,1.3 ± 0.09,1.42 ± 0.13,1.5 ± 0.18,1.49 ± 0.11,1.56 ± 0.2
UniProt O76095 and related entries,0.872 ± 0.065,0.883 ± 0.044,0.779 ± 0.027,0.871 ± 0.095,0.873 ± 0.042,0.832 ± 0.025
VPS26A (UniProt O75436),1.1 ± 0.16,1.01 ± 0.13,1.01 ± 0.12,0.96 ± 0.15,1.05 ± 0.1,0.995 ± 0.087
UniProt O75323,1.04 ± 0.062,0.999 ± 0.05,0.964 ± 0.016,0.976 ± 0.047,1.01 ± 0.044,0.958 ± 0.046
UniProt O75528,0.996 ± 0.038,1.02 ± 0.025,1.06 ± 0.029,1.09 ± 0.036,1.09 ± 0.018,1.07 ± 0.025
SASH3 (UniProt O75995),0.672 ± 0.2,0.609 ± 0.19,0.582 ± 0.23,0.591 ± 0.22,0.571 ± 0.24,0.553 ± 0.2
UniProt O75460,1.02 ± 0.13,1.02 ± 0.035,1.08 ± 0.069,1.04 ± 0.082,1.02 ± 0.066,0.996 ± 0.073
UniProt O95248-4|G5E933 and related entries,1.06 ± 0.031,1.05 ± 0.018,1.03 ± 0.019,1.03 ± 0.05,1.09 ± 0.036,1.06 ± 0.032
UniProt O75534 and related entries,0.986 ± 0.024,0.974 ± 0.04,0.943 ± 0.016,0.958 ± 0.058,0.973 ± 0.026,0.954 ± 0.04
UniProt O75582 and related entries,1.04 ± 0.041,1.06 ± 0.061,1.04 ± 0.06,1.04 ± 0.075,1.05 ± 0.054,1.04 ± 0.036
UniProt O60825 and related entries,1.05 ± 0.089,1.05 ± 0.052,1.05 ± 0.083,0.952 ± 0.14,1.04 ± 0.038,1.03 ± 0.031
NPM3 (UniProt O75607),1.03 ± 0.074,1 ± 0.065,1.06 ± 0.038,1.04 ± 0.037,1.06 ± 0.028,1.08 ± 0.035

# Random excerpt: 2 records from the list, in no set order.
Target,NP40-soluble protein abundance (concentration: 1mM),NP40-soluble protein abundance (concentration: 2mM),NP40-soluble protein abundance (concentration: 4mM),NP40-soluble protein abundance (concentration: 6mM),NP40-soluble protein abundance (concentration: 8mM),NP40-soluble protein abundance (concentration: 10mM)
ARIH2 (UniProt O95376),0.961 ± 0.052,0.987 ± 0.055,0.997 ± 0.084,0.965 ± 0.068,0.955 ± 0.11,0.992 ± 0.04
UniProt O60825 and related entries,1.05 ± 0.089,1.05 ± 0.052,1.05 ± 0.083,0.952 ± 0.14,1.04 ± 0.038,1.03 ± 0.031
